Step yield data for 1 substance are collected here from patent US20040072737A1 (Aventis Pharma S.A., priority 1997, published 2004).

A short description of this series: general procedure: peptide synthesis; pentafluorophenyl ester (pentafluorophenol / N,N' dicyclohexyl carbodiimide). Conditions: late stage modification step, trifluoroacetate.

Take “(pentyloxy)phenyl-piperazinyl-phenyl Stage B”: the step yield amounted to 42%.
